Source: paper PMC12805590
No constants are given. Whether binding was seen depends on the method and setting. In cells and extracts the contact can be indirect. Binding can be weak; no strength is given. Where a sequence is shown, tags or fusion partners need not be part of it.

Target: Flag–ARTS WT
Experiment: co-IP; HEK293T cells cotransfected with Flag–ARTS, HA–Livin and Myc–SIAH1 (WT or mutants); IP with anti-Flag, anti-HA or anti-Myc, immunoblot

B1: hemagglutinin [HA]–Livin WT (protein, UniProt Q96CA5 1-298)
chain: MGPKDSAKCLHRGPQPSHWAAGDGPTQERCGPRSLGSPVLGLDTCRAWDHVDGQILGQLRPLTEEEEEEGAGATLSRGPAFPGMGSEELRLASFYDWPLTAEVPPELLAAAGFFHTGHQDKVRCFFCYGGLQSWKRGDDPWTEHAKWFPSCQFLLRSKGRDFVHSVQETHSQLLGSWDPWEEPEDAAPVAPSVPASGYPELPTPRREVQSESAQEPGGVSPAEAQRAWWVLEPPGARDVEAQLRRLQEERTCKVCLDRAVSIVFVPCGHLVCAECAPGLQLCPICRAPVRSRVRTFLS
Q: B1 was tested. Which binding did it give?
A: Its binding is “binds”.
